PubChem BioAssay AID1224826 | NIAID, 2016

- Purpose: 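Genes that change LPS-induced Tnf promoter activity in mouse macrophages when knocked down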 (primary screen)
- System: RAW264.7 G9 macrophages from mouse bearing reporters for p65 (GFP) and the Tnf promoter (mCherry)
- Knock-down reagent: siRNA pool against mouse genes, 100 nM
- Time to read-out: 16 h of LPS stimulation, after 2 days of siRNA transfection
- Treatment: bacterial lipopolysaccharide (Salmonella minnesota R595), 10 ng/ml
- Detection: 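Nuclear mCherry signal of the Tnf promoter reporter measured by imaging after background removal, scaled to each plate median and turned into robust z-scores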
- Reading the numbers: Tnf reporter robust z-score: higher = stronger Tnf promoter reporter signal after LPS; Tnf reporter intensity: higher = stronger Tnf promoter reporter signal
- Hit rule: 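Called active when robust z-score is at most -1.3, matching the median of the Tlr4 knock-down control, or over 3; control wells and wells with under 50 cells never active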
- Meaning of the calls: active = Tnf reporter clearly lowered or raised; inactive = no clear change in Tnf reporter
The deposit covers about 17,000 reagents; this is an unselected part. Of all reagents, about 1,110 (6.6%) are marked active. 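Active means lowered or raised reporter signal; replicate intensities are raw and not normalised per plate.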 Entries without a mark were called inactive. Some reagents were tested in more than one well and are listed for each.

target | PubChem SID | Tnf reporter robust z-score | fewer than 50 cells in well | Tnf reporter intensity, replicate 1 | Tnf reporter intensity, replicate 2
Ift22 (intraflagellar transport 22) | SID315472946 | 0.94 | enough cells in well | 159 | 182
Vwc2 (von Willebrand factor C domain containing 2) | SID315481193 | 1.94 | enough cells in well | 232 | 309
Gpx8 (glutathione peroxidase 8 (putative)) | SID315473842 | – | fewer than 50 cells per well; well left out of calls | 165 | 49.6
Acox3 (acyl-Coenzyme A oxidase 3, pristanoyl) | SID315475757 | 0.96 | enough cells in well | 305 | 218
Dlk2 (delta like non-canonical Notch ligand 2) | SID315476548 | 0.01 | enough cells in well | 189 | 91.3
Calr (calreticulin) | SID315465734 | 2.79 | enough cells in well | 235 | 379
Hoxa6 (homeobox A6) | SID315467255 | 1.02 | enough cells in well | 359 | 201
H2-Q8 (histocompatibility 2, Q region locus 8) | SID315467125 | -0.56 | enough cells in well | 179 | 147
Pwwp3b (PWWP domain containing 3B) | SID315479831 | -0.76 | enough cells in well | 162 | 111
Rassf8 | SID315474217 | -1.28 | enough cells in well | 107 | 77.2
Tomm20 (translocase of outer mitochondrial membrane 20) | SID315473332 | -0.74 | enough cells in well | 99.8 | 60
Tcl1b4 (T cell leukemia/lymphoma 1B, 4) | SID315470593 | – | fewer than 50 cells per well; well left out of calls | 86.4 | 36.9
Aip (aryl-hydrocarbon receptor-interacting protein) | SID315465364 | 0.56 | enough cells in well | 195 | 119
Peak1 (pseudopodium-enriched atypical kinase 1) | SID315479792 | -0.39 | enough cells in well | 159 | 147
Atmin (ATM interactor) | SID315479197 | -0.39 | enough cells in well | 92.9 | 148
Gsta1 (glutathione S-transferase, alpha 1 (Ya)) | SID315467054 | 1.22 | enough cells in well | 335 | 240
Or1j18 (olfactory receptor family 1 subfamily J member 18) | SID315480565 | 0.48 | enough cells in well | 150 | 182
Slc68a1 | SID315475079 | 3.1 (active) | enough cells in well | 320 | 140
Eif2b3 (eukaryotic translation initiation factor 2B, subunit 3) | SID315476676 | -0.37 | enough cells in well | 173 | 233
4921504E06Rik (RIKEN cDNA 4921504E06 gene) | SID315474153 | -1.34 (active) | enough cells in well | 125 | 35.6
Mapk1ip1l | SID315478224 | -0.2 | enough cells in well | 97.3 | 163
Gm5087 (predicted gene 5087) | SID315481474 | 0.8 | enough cells in well | 213 | 219
Ippk (inositol 1,3,4,5,6-pentakisphosphate 2-kinase) | SID315475176 | 0.9 | enough cells in well | 261 | 201
Ippk (inositol 1,3,4,5,6-pentakisphosphate 2-kinase) | SID315475176 | 1.1 | enough cells in well | 216 | 83.2
Zfp169 (zinc finger protein 169) | SID315473305 | -0.57 | enough cells in well | 180 | 64.2
Zc3h10 (zinc finger CCCH type containing 10) | SID315476370 | -0.17 | enough cells in well | 226 | 146
Npas3 (neuronal PAS domain protein 3) | SID315470598 | 0.3 | enough cells in well | 265 | 118
Eef2 (eukaryotic translation elongation factor 2) | SID315466445 | -0.94 | enough cells in well | 157 | 156
Dscc1 | SID315474457 | – | fewer than 50 cells per well; well left out of calls | 202 | 80.7
Nif3l1 (Ngg1 interacting factor 3-like 1 (S. pombe)) | SID315472143 | -0.36 | enough cells in well | 169 | 129
Cst5 (cystatin D) | SID315471877 | 0.84 | enough cells in well | 283 | 178
Defa29 (defensin, alpha, 29) | SID315466302 | 1.15 | enough cells in well | 214 | 261
Dmrtc2 | SID315474208 | 0.26 | enough cells in well | 204 | 100
Emsy (EMSY, BRCA2-interacting transcriptional repressor) | SID315479088 | -0.43 | enough cells in well | 163 | 39.8
Rxfp4 (relaxin family peptide receptor 4) | SID315479594 | -0.76 | enough cells in well | 142 | 251
Cmpk2 (cytidine/uridine monophosphate kinase 2) | SID315469888 | 2.33 | enough cells in well | 216 | 156
Zdhhc19 (zinc finger, DHHC domain containing 19) | SID315479809 | -0.26 | enough cells in well | 115 | 112
Slc43a2 | SID315477911 | -0.3 | enough cells in well | 40.2 | 146
Fam78a (family with sequence similarity 78, member A) | SID315479562 | 2.01 | enough cells in well | 298 | 245
Rint1 (RAD50 interactor 1) | SID315474624 | 2.33 | enough cells in well | 304 | 89.7
Nrip2 (nuclear receptor interacting protein 2) | SID315472007 | -0.32 | enough cells in well | 202 | 173
Tmem41a (transmembrane protein 41a) | SID315472573 | 2.75 | enough cells in well | 319 | 303
Hipk1 (homeodomain interacting protein kinase 1) | SID315467207 | -0.42 | enough cells in well | 172 | 166
Fam43a (family with sequence similarity 43, member A) | SID315478321 | 1.02 | enough cells in well | 263 | 295
Rhox5 (reproductive homeobox 5) | SID315468463 | -0.61 | enough cells in well | 120 | 68
Bad (BCL2-associated agonist of cell death) | SID315465592 | 0.3 | enough cells in well | 167 | 168
Atp10b (ATPase, class V, type 10B) | SID315481165 | -0.12 | enough cells in well | 159 | 196
Mfng (MFNG O-fucosylpeptide 3-beta-N-acetylglucosaminyltransferase) | SID315467914 | -0.27 | enough cells in well | 226 | 198
Fzd8 (frizzled class receptor 8) | SID315466779 | 0.24 | enough cells in well | 198 | 379
Khk (ketohexokinase) | SID315467607 | 0.42 | enough cells in well | 185 | 220
Actr2 (actin related protein 2) | SID315472600 | -0.38 | enough cells in well | 141 | 154
Tagln3 (transgelin 3) | SID315471487 | -1.68 (active) | enough cells in well | 53.6 | 49.3
Ly6m (lymphocyte antigen 6 family member M) | SID315472792 | 4.14 (active) | enough cells in well | 362 | 152
Or2b2b (olfactory receptor family 2 subfamily B member 2B) | SID315480207 | -0.6 | enough cells in well | 228 | 67
Gabrb3 | SID315466801 | 1.48 | enough cells in well | 392 | 346
Shc4 (SHC (Src homology 2 domain containing) family, member 4) | SID315480957 | – | fewer than 50 cells per well; well left out of calls | 148 | 120
Gipc1 (GIPC PDZ domain containing family, member 1) | SID315473302 | -1.35 (active) | enough cells in well | 171 | 59.4
Cadps (Ca2+-dependent secretion activator) | SID315470532 | -0.57 | enough cells in well | 129 | 147

Limited to “Tnf reporter intensity, replicate 1”, for 7 of the entries above:
4921504E06Rik (RIKEN cDNA 4921504E06 gene) [SID315474153]	125 (active)
Mapk1ip1l [SID315478224]	97.3
Gm5087 (predicted gene 5087) [SID315481474]	213
Zfp169 (zinc finger protein 169) [SID315473305]	180
Zc3h10 (zinc finger CCCH type containing 10) [SID315476370]	226
Npas3 (neuronal PAS domain protein 3) [SID315470598]	265
Eef2 (eukaryotic translation elongation factor 2) [SID315466445]	157
